Article PMC4886823

Chains of the proteins cited; added tags and fusions are not shown.
UniProt Q6PH85: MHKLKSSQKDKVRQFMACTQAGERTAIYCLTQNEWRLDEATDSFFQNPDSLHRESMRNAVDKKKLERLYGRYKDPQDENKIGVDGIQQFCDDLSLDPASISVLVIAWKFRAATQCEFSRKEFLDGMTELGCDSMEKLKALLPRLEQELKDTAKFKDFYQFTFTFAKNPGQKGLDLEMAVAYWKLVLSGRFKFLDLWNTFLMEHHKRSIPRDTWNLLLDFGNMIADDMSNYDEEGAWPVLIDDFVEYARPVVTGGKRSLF
UniProt Q96GG9: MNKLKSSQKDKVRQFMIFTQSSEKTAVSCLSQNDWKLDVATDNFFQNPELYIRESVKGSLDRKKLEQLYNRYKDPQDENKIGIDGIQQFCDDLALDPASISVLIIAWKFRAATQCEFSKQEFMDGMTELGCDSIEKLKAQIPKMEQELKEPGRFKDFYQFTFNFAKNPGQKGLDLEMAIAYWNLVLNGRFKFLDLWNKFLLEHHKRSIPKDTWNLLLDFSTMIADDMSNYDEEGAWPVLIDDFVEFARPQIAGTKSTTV
UniProt Q13619: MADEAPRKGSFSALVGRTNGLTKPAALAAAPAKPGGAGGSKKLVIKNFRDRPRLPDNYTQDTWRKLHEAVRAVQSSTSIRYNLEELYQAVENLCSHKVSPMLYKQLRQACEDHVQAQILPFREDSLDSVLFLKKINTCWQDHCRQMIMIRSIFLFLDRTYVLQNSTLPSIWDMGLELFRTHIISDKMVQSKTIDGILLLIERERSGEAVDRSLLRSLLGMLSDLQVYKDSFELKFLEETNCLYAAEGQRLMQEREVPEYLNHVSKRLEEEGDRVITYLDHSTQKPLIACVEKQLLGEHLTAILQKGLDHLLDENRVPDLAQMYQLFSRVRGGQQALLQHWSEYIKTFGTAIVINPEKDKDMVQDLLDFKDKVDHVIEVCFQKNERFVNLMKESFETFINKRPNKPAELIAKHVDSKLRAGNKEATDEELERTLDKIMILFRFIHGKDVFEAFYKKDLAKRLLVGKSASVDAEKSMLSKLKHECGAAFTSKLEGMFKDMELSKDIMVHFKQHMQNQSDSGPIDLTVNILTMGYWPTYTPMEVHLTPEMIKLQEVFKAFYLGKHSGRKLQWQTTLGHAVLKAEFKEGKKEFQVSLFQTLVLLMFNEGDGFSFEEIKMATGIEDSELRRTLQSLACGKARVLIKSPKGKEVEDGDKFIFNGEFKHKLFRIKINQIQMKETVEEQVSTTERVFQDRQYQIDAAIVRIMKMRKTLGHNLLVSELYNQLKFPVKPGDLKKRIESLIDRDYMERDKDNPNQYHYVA
UniProt Q13620: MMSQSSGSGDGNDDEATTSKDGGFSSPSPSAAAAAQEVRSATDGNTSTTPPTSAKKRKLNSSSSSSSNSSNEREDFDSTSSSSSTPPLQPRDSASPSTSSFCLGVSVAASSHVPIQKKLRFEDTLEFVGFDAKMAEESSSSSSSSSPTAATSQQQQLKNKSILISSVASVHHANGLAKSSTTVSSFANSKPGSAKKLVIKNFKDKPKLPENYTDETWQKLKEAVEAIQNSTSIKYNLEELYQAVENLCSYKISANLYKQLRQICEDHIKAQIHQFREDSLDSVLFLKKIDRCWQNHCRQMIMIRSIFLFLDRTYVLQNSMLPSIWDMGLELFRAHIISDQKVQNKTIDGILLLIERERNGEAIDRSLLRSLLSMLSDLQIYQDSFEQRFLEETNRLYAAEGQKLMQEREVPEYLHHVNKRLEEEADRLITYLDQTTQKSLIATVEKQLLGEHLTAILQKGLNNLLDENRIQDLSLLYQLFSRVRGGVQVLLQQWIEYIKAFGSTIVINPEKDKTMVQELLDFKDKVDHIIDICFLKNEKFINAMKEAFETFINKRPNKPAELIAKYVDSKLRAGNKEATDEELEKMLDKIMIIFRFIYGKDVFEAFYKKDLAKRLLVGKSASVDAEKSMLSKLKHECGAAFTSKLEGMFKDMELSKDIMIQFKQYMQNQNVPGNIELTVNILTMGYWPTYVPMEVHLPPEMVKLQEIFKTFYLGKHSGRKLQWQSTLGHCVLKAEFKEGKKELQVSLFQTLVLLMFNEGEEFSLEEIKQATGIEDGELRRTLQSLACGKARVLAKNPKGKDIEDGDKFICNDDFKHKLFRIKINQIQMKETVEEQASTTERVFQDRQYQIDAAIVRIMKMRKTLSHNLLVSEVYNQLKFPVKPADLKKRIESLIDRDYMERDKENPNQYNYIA
UniProt Q93034: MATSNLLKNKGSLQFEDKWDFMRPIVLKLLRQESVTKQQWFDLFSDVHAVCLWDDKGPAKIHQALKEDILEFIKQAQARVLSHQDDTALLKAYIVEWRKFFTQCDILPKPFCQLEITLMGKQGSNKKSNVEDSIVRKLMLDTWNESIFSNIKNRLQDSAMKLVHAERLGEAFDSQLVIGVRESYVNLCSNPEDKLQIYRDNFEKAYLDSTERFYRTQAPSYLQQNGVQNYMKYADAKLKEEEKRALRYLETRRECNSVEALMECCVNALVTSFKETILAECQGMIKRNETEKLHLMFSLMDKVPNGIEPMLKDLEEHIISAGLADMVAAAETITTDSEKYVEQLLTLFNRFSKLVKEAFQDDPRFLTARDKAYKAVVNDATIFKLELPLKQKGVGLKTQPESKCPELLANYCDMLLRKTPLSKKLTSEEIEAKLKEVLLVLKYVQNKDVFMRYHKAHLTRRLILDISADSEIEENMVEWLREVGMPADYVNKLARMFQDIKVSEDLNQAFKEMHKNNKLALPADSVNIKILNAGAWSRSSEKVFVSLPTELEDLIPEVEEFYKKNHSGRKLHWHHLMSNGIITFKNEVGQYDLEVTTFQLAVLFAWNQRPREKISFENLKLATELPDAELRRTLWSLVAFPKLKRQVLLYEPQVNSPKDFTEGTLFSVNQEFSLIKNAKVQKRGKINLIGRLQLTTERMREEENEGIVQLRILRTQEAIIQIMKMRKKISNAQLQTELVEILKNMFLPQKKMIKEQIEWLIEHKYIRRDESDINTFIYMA
UniProt Q14999: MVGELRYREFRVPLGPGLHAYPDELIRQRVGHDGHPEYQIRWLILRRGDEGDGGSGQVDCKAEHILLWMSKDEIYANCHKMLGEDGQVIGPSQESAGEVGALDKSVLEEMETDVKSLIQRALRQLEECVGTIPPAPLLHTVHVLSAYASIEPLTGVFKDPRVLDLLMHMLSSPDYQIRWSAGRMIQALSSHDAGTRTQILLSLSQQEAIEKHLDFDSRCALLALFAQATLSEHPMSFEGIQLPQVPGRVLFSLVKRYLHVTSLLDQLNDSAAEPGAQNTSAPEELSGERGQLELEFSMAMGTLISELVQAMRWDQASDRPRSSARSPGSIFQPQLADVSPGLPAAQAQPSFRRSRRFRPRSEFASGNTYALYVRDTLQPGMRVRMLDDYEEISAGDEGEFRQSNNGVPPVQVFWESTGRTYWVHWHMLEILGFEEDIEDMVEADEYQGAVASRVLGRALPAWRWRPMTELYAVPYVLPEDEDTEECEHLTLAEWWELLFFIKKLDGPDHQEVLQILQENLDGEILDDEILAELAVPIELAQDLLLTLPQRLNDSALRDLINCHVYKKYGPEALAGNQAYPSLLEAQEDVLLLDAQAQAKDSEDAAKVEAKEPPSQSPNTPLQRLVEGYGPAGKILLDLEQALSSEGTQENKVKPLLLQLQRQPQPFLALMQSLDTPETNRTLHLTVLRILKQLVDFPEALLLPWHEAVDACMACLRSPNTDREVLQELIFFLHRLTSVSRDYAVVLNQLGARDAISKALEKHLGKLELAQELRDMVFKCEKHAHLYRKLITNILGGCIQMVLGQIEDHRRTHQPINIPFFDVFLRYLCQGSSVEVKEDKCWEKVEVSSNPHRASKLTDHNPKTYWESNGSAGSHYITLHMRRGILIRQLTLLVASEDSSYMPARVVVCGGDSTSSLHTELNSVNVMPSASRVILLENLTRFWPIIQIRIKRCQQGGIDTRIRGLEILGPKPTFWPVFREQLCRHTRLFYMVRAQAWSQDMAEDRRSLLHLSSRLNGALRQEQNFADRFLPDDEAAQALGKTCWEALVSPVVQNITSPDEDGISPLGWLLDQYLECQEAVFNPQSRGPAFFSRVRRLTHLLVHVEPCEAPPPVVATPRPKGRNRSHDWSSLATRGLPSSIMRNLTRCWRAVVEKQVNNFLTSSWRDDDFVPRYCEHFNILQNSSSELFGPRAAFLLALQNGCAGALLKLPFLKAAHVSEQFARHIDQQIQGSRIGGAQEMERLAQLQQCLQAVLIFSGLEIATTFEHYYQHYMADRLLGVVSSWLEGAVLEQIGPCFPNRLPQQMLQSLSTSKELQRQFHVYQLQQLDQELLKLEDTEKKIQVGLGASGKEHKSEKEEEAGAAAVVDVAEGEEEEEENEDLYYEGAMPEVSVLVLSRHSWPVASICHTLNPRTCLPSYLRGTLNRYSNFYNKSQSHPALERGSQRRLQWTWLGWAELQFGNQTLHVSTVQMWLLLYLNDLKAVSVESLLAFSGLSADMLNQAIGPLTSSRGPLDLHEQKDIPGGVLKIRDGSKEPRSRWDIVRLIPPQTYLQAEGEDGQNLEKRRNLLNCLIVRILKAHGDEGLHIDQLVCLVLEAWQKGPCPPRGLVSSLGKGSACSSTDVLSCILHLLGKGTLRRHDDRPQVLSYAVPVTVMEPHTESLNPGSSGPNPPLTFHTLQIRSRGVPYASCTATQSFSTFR
UniProt Q16531: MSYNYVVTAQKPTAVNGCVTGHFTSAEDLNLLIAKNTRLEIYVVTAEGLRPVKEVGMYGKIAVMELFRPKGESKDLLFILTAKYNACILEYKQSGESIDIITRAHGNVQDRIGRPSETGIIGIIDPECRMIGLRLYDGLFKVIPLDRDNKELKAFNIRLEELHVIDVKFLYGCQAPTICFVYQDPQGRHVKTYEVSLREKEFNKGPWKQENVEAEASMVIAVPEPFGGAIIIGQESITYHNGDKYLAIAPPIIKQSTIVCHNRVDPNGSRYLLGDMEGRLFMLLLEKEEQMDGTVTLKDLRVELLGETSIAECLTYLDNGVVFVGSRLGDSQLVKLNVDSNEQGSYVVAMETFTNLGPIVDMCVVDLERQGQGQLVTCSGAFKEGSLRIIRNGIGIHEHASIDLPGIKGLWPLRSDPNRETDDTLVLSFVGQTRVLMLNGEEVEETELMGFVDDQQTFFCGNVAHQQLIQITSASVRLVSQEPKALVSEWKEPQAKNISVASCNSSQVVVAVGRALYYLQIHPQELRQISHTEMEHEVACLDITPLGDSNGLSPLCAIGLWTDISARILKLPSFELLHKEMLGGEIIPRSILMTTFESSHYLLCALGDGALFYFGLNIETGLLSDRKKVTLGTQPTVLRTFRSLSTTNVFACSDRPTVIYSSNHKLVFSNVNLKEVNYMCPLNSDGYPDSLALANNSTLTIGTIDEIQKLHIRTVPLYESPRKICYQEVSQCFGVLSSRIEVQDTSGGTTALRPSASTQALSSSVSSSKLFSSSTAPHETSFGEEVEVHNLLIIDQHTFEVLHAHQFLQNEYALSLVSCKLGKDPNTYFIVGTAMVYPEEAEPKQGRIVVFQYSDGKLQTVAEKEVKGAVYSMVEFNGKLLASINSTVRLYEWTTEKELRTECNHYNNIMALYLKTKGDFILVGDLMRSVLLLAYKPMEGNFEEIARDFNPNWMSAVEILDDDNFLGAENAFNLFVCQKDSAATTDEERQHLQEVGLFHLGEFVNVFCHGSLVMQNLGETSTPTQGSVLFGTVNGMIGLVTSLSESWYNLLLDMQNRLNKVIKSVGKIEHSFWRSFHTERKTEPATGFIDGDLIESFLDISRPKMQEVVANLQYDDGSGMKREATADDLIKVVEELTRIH
UniProt Q9UBF6: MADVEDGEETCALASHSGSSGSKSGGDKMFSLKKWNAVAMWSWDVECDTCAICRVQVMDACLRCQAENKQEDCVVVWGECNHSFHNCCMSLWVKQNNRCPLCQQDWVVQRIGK

Tests used:
Assay in all cases: affinity purification with mass spectrometry; FLAG(M2)-magnetic bead immunoprecipitation from lysates of HEK-293 cells stably expressing N-terminally FLAG-tagged DCNLs; eluate trypsin-digested, Orbitrap, MaxQuant; interactors with >3 unique peptides plotted
FLAG–DCNL2 (WT) (human) = FLAG–DCNL2 (WT) (human) (UniProt Q6PH85)
FLAG–DCNL1 (WT) (human) = FLAG–DCNL1 (WT) (human) (UniProt Q96GG9)
FLAG–DCNL3 (WT) (human) = biological target: T1, FLAG–DCNL3 (WT) (human) (UniProt Q8IWE4)
T1 sequence: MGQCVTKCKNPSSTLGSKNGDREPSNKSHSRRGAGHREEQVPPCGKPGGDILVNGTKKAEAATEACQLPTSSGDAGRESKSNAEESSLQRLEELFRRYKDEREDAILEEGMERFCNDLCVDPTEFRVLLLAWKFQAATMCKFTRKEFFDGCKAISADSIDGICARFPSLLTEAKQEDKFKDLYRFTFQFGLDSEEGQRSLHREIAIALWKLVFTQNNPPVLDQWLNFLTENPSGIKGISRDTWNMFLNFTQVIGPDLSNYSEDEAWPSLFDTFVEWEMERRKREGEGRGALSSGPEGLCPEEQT

FLAG–DCNL5 (WT) (human) = biological target: T2, FLAG–DCNL5 (WT) (human) (UniProt Q9BTE7)
T2 sequence: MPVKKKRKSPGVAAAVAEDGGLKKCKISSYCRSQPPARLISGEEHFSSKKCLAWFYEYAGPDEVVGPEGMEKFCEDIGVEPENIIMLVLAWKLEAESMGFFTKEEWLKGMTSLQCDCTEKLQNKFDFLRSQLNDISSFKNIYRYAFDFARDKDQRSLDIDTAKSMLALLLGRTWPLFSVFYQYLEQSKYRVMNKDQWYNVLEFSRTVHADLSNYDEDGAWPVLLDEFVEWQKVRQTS

binding (FLAG–DCNL2 (WT) (human))	binding (FLAG–DCNL1 (WT) (human))	binding (FLAG–DCNL3 (WT) (human))	binding (FLAG–DCNL5 (WT) (human))	Substance
binds	binds	binds	binds	Cul4A (from UniProt Q13619 1-759)
binds	binds	binds	binds	Cul4B (from UniProt Q13620 1-913)
binds	binds	binds	binds	Cul5 (from UniProt Q93034 1-780)
no binding	no binding	no binding	no binding	Cul7 (from UniProt Q14999 1-1698)
no binding	no binding	no binding	no binding	Cul9 (from UniProt Q8IWT3 1-2517)
binds	binds	binds	binds	DDB1 (from UniProt Q16531 1-1140)
binds	binds	binds	binds	RBX2 (RNF7) (from UniProt Q9UBF6 1-113)

These are yes or no findings as the source states them, for the method shown. Binding seen in cells or lysates may run through a third protein. Here binding means that the protein was enriched with, or labelled near, the bait; the list need not be complete. A no says only that the protein was not detected with the bait. For some of these results: Tags and fused reporters may be left off the sequences shown.
